The target of experiment [1] is second (C-terminal) zinc-binding domain of HPV 51 E6 (human papilloma virus type 51 (HPV 51)) (UniProt P26554). Nature of the experiment: dynamic light scattering; hydrodynamic radius of purified 51Z2; both purified.
Experiment [2] has the same target. Kind of experiment: SEC; analytical gel-filtration of 51Z2 on a TSK gel G3000SWxl column, calibrated with reference proteins; both purified. (In general: Size exclusion chromatography separates by hydrodynamic size, large species first.)

These are yes or no findings as the source states them, for the method shown.

For “second (C-terminal) zinc-binding domain of HPV 51 E6 (from UniProt P26554 80-151) (domain or fragment)”, the binding entry in experiment [1] and in experiment [2] was “no binding” each time.

(Values after publication PMC3640046, “Structural Insights into a Wildtype Domain of the Oncoprotein E6 and Its Interaction with a PDZ Domain” (PLoS ONE, 2013).)
